No constants are given. Whether binding was seen depends on the method and setting. Binding calls can cover weak binding; strength is not graded here.
What was measured:
[1] = target: GLP-1r (Homo sapiens (Human)); test: phage display selection
[2] = target: GIPr (Homo sapiens (Human)); test: phage display selection

Binder	binding [1]	binding [2]
HGEGTFTSDVSSYMERQAIDEFIAWLLAG [AID peptide]	binds	binds
HGEGTFTSDVSSYMESQLVREFIAWLVKG [LVR peptide]	binds	binds
HGEGTFTSDVSSYMEAQSIREFIAWLVKGP [SIR peptide]	binds	binds
